Measurements published in PubChem BioAssay AID2685 (National Center for Advancing Translational Sciences (NCATS), 2010).
The list shows a part of the results. The main result of the screen is listed elsewhere. These columns were measured beside it and carry no call. Most of these compounds were active or inconclusive in the main read-out, so they are no random draw. The note in brackets gives the kind of curve behind each potency; many fits are weak.

Test: qHTS Assay for Lipid Storage Modulators in Drosophila S3 Cells;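 as to cell number change: cells counted by Cell Tracker Red CMTPX staining in the red channel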
Details: BODIPY lipid droplet fluorescence, 18-24 h; for cell number change: measured here: cell count max response, cells fed with added oleic acid
Outline: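 Drosophila S3 cells loaded with oleic acid (400 uM, as added) and compounds at several concentrations; lipid droplets imaged by 488-nm laser-scanning cytometry, 500–530 nm intensity and object ratio to cell channel. Percent activity normalized to 20 uM Triacsin C.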

[1] = measured here: lipid fluorescence (Fed channel) AC50, cells fed with added oleic acid
[2] = measured here: cell number channel AC50, cells fed with added oleic acid

Compound	cell number change [%]	AC50 [1]	AC50 [2]
CCC(C)N(C(=O)COC(=O)/C=C/c1ccc(O)c(OC)c1)C1CCS(=O)(=O)C1 (stereo unspecified)	5.26		
COc1ccc(C2(O)CN(c3ccccc3)C3=[N+]2CCS3)cc1OC (stereo unspecified)		0.411 µM [rising, partial curve, poor fit]	
COCCn1c(N)c(N(Cc2ccccc2)C(=O)CSCC(=O)Nc2ccc(OC)cc2)c(=O)[nH]c1=O	-19.2	0.651 µM [falling, single point]	
COc1ccccc1N(CC(=O)N/N=C(\C)c1cccc(Br)c1)S(C)(=O)=O		1.03 µM [rising, full curve]	0.92 µM [rising, partial curve]
O=C(O)C1CC(=O)N(CCc2ccc(F)cc2)C1 (stereo unspecified)	13.5	0.231 µM [rising, full curve, poor fit]	
COc1cccc(C(=O)N2CCN(Cc3ccc4c(c3)OCO4)CC2)c1OC	0.517	6.51 µM [falling, single point]	
Cc1cc(C)c(CN2CCC(n3nccc3NC(=O)c3ccccc3Cl)CC2)cc1C	42.7	8.2 µM [rising, partial curve, poor fit]	29.1 µM [rising, single point]
COc1ccc(-c2cnn(C3CCS(=O)(=O)C3)c2N)cc1 (stereo unspecified)	5.59	2.06 µM [rising, partial curve]	
Cc1ccnc(Sc2ncccc2[N+](=O)[O-])n1		25.9 µM [falling, partial curve]	
COc1ccc(C(=O)Oc2ccc(/C=N/NC(=O)Cc3ccc([N+](=O)[O-])cc3)cc2)cc1	41	32.6 µM [rising, single point]	0.231 µM [rising, full curve]
COc1cccc(/C=c2\s/c(=C\C(=O)C(C)(C)C)[nH]c2=O)c1	-41.2		6.51 µM [falling, partial curve, poor fit]
COc1ccccc1C(=O)OCc1ccc2sc(C)nc2c1	-1.73	0.355 µM [falling, full curve]	1.12 µM [falling, partial curve, poor fit]
CCOC(=O)CC(Nc1nc(N2CCOCC2)nc(N2CCOCC2)n1)c1ccccc1Cl (stereo unspecified)	-16.7	0.259 µM [falling, full curve, poor fit]	
COc1ccc2cc(C(=O)Nc3ccc(O)cc3)sc(=O)c2c1OC	33.2	4.61 µM [rising, partial curve]	
COc1ccc(S(=O)(=O)N2CCOCC2)cc1NC(=O)c1cccc(-n2cccc2)c1		6.51 µM [rising, partial curve]	
COCCN(C(=S)Nc1ccc(C)cc1)C(C)c1cccnc1 (stereo unspecified)			3.26 µM [rising, single point]
CN(C)S(=O)(=O)c1ccc(S(=O)(=O)N(Cc2ccco2)Cc2ccccc2Cl)cc1	-143	1.3 µM [falling, partial curve]	25.9 µM [falling, partial curve]
Cc1cc(-c2ccccc2)n(-c2ccc(C(=O)N3CCN(c4ncccn4)CC3)cc2)n1	98.4	25.9 µM [rising, partial curve]	0.461 µM [rising, partial curve, poor fit]
CSc1ccc(CN2CCC(n3nccc3NC(=O)CCCc3ccccc3)CC2)cc1	-3.4	6.51 µM [rising, single point]	

Compound	cell number change [%]	AC50 [1]	AC50 [2]
CC(C)(C)CC(=O)N1CCN(c2ccc(S(=O)(=O)N3CCOCC3)cc2[N+](=O)[O-])CC1	-21	0.411 µM [rising, partial curve, poor fit]	
O=C(c1ccc(Cl)c(S(=O)(=O)N2CCCCCC2)c1)N1CCCC(C(F)(F)F)C1 (stereo unspecified)		6.51 µM [rising, partial curve]	
O=C(CN(C(=O)CCC(=O)Nc1ccccn1)c1cccc(F)c1)NCc1ccc(F)cc1	8.97		
O=C(NC1CCN(S(=O)(=O)c2ccccc2F)CC1)c1ccco1	2.61	29.1 µM [falling, single point]	
Cn1nccc1C(=O)N1CCN(S(=O)(=O)c2ccc(Br)s2)CC1	42.7		25.9 µM [rising, single point]
Nc1nc(N)nc(-c2ccccc2)n1	-150		29.1 µM [falling, partial curve]
CCCCN(C(=O)c1cc2c(s1)CCCC2)c1c(N)n(CCC)c(=O)[nH]c1=O	2.28	29.1 µM [rising, single point]	
O=C(NCc1ccc2c(c1)OCO2)c1nn2cccnc2c1Cl		0.731 µM [rising, partial curve, poor fit]	0.206 µM [rising, full curve]
CCCCn1c(N)c(N(CCOC)C(=O)COC(=O)c2cc(CC)c(C)s2)c(=O)[nH]c1=O	-16.3	23.1 µM [falling, single point]	
Cc1ccc2c(Cl)c(C(=O)NCCc3ccccc3)sc2c1	87.5	11.6 µM [rising, partial curve]	6.51 µM [rising, partial curve, poor fit]
COc1ccc(NCc2ccsc2)cc1	-22.7	29.1 µM [rising, single point]	
O=S(=O)(NCCc1cn2ccccc2n1)c1cccs1		5.8 µM [falling, single point]	
O=C(NCc1ccccn1)c1cccc(S(=O)(=O)Nc2ccc(F)cc2)c1			4.11 µM [rising, single point]
CCOc1ccc(/C=C/C2=CC(C)(C)NC(=S)N2)cc1		32.6 µM [falling, single point]	
COc1ccc(C2CC(c3ccccc3)Nc3ncnn32)cc1 (stereo unspecified)	7.57		
Cn1cc([N+](=O)[O-])c(C(=O)Nc2nc(-c3ccc(Cl)cc3)cs2)n1			0.206 µM [rising, full curve, poor fit]
COc1ccccc1-c1csc(NC(=O)c2cc(-c3cccs3)nc3ccccc23)n1	1.34		
O=C(NNC(=O)c1ccccc1Cl)c1ccc(-n2cncn2)c([N+](=O)[O-])c1	8.88		

Full records, looked up by structure:
CSc1ccc(CN2CCC(n3nccc3NC(=O)CCCc3ccccc3)CC2)cc1 is listed as cell number change [%]: -3.4; AC50 [1]: 6.51 µM [rising, single point]
O=C(NNC(=O)c1ccccc1Cl)c1ccc(-n2cncn2)c([N+](=O)[O-])c1 is listed as cell number change [%]: 8.88
